According to the supplement of paper PMC10849652:
The list shows a part of the results.

Amino acid sequences for entries named in this document (tags omitted). A change or cut given only in a name is not applied to a line headed by its entry.
UniProt Q86VP6: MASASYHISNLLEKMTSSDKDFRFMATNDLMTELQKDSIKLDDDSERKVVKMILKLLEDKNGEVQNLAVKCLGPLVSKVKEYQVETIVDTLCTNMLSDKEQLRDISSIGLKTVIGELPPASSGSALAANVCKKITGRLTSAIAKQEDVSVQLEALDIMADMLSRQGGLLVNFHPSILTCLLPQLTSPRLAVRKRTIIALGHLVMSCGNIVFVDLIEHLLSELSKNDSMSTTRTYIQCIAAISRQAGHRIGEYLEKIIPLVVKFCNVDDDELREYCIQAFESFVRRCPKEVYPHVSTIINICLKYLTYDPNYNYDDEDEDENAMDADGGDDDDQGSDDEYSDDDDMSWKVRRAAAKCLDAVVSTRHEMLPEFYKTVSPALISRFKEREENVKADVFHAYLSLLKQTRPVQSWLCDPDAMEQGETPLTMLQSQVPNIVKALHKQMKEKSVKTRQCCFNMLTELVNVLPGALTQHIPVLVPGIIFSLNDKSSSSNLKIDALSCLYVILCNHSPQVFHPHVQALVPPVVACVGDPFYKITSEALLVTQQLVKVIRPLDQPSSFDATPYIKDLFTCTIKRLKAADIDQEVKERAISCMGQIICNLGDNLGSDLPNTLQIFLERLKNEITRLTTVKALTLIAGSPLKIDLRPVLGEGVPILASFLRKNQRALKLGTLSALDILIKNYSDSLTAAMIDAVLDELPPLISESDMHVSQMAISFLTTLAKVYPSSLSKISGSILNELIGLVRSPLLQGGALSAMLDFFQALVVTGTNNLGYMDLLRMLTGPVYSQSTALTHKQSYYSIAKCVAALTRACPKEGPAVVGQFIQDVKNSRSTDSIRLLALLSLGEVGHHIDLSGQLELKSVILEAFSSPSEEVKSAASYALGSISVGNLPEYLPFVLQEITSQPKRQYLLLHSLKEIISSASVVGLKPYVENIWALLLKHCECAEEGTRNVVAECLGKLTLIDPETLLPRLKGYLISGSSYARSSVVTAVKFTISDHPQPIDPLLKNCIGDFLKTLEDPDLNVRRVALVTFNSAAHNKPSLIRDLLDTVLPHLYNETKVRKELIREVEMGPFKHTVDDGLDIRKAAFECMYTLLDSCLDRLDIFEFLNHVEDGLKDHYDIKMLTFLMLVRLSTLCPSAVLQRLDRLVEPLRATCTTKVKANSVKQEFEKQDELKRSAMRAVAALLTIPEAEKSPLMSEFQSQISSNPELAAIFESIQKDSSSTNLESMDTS
UniProt Q96RR4, whole entry, looked up: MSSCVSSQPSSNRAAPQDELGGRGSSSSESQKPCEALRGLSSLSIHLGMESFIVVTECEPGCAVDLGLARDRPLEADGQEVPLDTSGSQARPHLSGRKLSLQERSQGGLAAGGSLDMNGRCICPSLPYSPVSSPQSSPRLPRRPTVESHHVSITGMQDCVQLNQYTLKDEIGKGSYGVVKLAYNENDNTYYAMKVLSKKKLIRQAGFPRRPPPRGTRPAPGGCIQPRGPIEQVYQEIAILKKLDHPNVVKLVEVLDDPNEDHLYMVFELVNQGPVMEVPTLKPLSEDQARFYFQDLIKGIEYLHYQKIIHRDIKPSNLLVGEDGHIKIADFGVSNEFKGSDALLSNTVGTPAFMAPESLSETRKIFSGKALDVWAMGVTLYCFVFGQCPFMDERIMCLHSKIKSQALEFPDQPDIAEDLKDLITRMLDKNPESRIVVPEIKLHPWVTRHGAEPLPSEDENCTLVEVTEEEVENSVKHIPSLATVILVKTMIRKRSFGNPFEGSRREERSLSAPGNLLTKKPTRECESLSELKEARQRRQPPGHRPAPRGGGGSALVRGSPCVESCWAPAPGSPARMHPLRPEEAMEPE
UniProt Q96NL8: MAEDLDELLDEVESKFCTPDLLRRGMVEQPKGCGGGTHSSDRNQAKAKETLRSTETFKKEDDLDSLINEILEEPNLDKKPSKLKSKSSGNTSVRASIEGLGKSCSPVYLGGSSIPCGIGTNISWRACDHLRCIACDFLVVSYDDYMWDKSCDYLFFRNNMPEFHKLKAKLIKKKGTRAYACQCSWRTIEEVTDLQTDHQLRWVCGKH
UniProt Q8TCD1: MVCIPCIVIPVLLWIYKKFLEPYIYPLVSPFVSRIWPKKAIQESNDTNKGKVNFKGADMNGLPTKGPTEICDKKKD
UniProt Q96GV9: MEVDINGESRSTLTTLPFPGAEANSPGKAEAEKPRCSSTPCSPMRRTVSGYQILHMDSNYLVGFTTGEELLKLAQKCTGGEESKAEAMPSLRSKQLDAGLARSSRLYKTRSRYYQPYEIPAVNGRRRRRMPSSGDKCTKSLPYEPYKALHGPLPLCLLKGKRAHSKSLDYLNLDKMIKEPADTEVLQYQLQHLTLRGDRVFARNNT
UniProt Q96MH7: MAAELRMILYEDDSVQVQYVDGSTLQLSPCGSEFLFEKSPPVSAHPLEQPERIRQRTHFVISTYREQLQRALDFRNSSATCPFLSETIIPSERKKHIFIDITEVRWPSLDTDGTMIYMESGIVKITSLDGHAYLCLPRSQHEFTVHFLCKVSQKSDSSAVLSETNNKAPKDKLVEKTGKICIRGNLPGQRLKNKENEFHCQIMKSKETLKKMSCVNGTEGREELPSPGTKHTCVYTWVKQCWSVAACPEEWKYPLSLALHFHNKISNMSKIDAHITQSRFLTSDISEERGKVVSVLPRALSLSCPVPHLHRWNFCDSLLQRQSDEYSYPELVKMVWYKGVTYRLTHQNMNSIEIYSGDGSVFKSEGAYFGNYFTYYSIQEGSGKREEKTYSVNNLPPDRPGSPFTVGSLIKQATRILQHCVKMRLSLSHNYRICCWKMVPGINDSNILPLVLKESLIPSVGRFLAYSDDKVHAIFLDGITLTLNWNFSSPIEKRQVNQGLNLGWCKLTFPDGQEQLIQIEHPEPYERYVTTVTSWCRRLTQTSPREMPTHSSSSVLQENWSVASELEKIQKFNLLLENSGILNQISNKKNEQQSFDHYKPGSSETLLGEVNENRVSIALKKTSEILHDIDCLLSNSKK
UniProt Q9HAS0: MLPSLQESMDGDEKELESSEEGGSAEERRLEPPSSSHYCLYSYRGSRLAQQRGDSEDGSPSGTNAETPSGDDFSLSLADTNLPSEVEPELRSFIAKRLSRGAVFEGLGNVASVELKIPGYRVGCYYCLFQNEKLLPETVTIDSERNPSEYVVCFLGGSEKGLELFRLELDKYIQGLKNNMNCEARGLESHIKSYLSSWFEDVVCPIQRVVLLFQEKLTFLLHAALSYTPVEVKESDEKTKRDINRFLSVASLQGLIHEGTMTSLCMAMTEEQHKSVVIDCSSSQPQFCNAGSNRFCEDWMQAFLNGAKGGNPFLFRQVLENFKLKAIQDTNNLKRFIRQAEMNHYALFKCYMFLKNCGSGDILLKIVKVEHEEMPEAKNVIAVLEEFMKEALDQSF
UniProt P27797, whole entry, looked up: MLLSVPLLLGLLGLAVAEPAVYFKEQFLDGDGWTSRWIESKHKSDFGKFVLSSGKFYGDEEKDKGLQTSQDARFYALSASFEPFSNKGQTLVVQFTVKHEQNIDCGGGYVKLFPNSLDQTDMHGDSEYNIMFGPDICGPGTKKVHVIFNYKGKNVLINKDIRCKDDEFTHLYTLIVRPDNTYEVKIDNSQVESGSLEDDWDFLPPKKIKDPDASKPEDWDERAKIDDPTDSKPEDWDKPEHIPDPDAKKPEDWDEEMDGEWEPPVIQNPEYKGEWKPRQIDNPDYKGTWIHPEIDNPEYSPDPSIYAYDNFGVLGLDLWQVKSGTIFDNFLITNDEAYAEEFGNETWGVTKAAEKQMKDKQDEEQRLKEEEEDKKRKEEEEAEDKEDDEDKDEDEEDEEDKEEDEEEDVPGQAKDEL
UniProt O14523: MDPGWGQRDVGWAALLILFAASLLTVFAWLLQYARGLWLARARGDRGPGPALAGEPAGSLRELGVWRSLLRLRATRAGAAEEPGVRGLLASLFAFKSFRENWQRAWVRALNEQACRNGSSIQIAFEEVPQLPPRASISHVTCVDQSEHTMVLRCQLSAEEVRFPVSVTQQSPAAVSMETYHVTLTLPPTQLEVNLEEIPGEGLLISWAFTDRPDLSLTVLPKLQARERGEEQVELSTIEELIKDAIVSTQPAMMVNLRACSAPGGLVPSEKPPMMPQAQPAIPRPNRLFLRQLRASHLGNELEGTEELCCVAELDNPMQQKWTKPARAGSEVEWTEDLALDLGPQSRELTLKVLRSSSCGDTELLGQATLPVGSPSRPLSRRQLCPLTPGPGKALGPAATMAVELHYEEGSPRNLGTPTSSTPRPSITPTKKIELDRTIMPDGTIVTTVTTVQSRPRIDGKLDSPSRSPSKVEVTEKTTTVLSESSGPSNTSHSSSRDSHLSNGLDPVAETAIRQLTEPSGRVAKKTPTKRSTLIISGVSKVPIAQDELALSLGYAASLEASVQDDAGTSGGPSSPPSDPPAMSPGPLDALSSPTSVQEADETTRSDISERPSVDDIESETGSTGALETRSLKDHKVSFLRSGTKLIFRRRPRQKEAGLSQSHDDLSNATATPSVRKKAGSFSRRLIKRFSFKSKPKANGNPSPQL
UniProt Q9BVC5: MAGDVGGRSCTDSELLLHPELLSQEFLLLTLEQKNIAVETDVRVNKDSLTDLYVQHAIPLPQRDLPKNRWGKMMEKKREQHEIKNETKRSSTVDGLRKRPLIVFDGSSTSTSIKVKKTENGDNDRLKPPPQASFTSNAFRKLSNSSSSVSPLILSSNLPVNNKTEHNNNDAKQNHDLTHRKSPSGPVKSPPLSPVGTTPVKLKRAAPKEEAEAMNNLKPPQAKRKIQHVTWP
UniProt Q8IXQ3: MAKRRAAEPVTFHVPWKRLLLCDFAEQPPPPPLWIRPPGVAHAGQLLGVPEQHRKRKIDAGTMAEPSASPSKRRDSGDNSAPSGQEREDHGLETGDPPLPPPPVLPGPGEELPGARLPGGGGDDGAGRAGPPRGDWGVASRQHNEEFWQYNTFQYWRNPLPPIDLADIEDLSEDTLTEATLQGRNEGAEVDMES
UniProt Q8WUR7: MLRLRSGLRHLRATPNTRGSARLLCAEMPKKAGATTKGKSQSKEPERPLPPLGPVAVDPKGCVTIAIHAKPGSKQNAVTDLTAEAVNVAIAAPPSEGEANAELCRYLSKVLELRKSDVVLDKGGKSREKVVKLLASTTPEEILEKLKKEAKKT
UniProt Q9BPX7: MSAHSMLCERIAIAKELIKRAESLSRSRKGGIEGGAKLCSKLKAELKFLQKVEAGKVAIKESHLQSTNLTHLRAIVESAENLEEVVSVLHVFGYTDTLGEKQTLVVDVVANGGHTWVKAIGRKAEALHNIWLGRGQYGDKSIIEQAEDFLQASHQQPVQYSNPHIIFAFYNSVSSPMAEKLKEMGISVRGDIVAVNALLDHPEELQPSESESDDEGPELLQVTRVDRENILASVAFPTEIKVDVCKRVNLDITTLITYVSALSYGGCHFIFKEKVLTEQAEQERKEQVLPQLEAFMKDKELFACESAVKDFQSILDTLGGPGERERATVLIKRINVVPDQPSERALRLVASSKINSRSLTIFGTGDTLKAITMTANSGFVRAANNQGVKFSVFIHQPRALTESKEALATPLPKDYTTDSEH
UniProt P40121: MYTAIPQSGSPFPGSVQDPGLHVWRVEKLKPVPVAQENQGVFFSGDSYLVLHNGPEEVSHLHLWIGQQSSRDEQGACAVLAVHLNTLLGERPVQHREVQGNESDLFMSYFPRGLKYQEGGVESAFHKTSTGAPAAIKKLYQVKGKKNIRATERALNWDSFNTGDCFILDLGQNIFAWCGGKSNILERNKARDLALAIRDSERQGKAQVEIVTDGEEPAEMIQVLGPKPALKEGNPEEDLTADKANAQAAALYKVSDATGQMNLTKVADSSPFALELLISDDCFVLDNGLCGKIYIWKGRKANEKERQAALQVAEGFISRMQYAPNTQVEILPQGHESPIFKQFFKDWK
UniProt P07384: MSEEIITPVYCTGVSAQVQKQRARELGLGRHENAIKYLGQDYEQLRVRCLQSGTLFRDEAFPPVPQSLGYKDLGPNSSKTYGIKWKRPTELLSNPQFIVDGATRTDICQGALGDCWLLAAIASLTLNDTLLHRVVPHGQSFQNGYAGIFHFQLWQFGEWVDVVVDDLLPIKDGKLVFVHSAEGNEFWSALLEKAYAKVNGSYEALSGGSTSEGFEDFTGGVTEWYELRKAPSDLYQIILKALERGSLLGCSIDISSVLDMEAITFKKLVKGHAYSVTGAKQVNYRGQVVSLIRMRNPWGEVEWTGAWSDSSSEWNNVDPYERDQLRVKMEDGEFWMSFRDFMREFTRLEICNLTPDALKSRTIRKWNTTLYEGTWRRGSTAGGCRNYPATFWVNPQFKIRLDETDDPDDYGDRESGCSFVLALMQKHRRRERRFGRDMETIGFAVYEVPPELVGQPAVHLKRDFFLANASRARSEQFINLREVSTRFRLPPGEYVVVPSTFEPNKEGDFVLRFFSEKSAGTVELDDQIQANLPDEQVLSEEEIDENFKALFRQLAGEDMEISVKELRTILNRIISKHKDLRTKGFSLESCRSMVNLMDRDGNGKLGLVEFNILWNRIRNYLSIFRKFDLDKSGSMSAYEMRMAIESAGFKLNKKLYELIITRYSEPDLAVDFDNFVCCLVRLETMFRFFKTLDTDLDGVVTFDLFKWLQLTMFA

Each target was assayed with NCC(=O)Nc1ccc(-n2nc(C(F)(F)F)cc2-c2ccc3c(ccc4ccccc43)c2)cc1 (assay: log2 fold change, soluble protein after heating vs DMSO (PISA); higher = thermal stabilisation; K562 lysate, 10 uM; active = over 0.2 and 3.5 SD of the protein, either way, in both replicates (recomputed)).
Summary of the method: (§1)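 A 30 min treatment with 10 μM compound was applied to crude K562 extract at 1 mg/mL protein in PBS pH 7.4 with 1 mM MgCl2. Heating for 3 min spanned 48°C-58°C, after which aliquots were pooled, adjusted to 0.5% NP-40 at 4°C and spun at 21,000xg for 90 min. TMTpro 16plex LC-MS/MS of the supernatant, with channel sums equalised, gave values recorded as log-two fold change in thermal stability against solvent controls, from duplicates.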

**Q.** CAND1 (UniProt Q86VP6) was tested. Which log2 fold change did it give?
**A.** Its log2 fold change is inactive: 0.015.

**Q.** For CAMKK2 (UniProt Q96RR4), which log2 fold change is on record?
**A.** The log2 fold change was inactive: 0.081.

**Q.** For C16orf70 (UniProt Q9BSU1), which log2 fold change is on record?
**A.** Its log2 fold change is inactive: -0.013.

**Q.** With C8orf37 (UniProt Q96NL8) as the target, how does the log2 fold change read?
**A.** Its log2 fold change is inactive: 0.206.

**Q.** How did the log2 fold change turn out when C9orf78 (UniProt Q9NZ63) was run?
**A.** Its log2 fold change is inactive: -0.011.

**Q.** Which log2 fold change does the source give for C18orf32 (UniProt Q8TCD1) here?
**A.** The log2 fold change was inactive: 0.004.

**Q.** How did the log2 fold change turn out when C12orf29 (UniProt Q8N999) was run?
**A.** The log2 fold change was inactive: 0.029.

**Q.** For CA13 (UniProt Q8N1Q1), which log2 fold change is on record?
**A.** Its log2 fold change is inactive: 0.038.

**Q.** For C5orf30 (UniProt Q96GV9), which log2 fold change is on record?
**A.** The log2 fold change was inactive: 0.128.

**Q.** How did the log2 fold change turn out when BUB3 (UniProt O43684) was run?
**A.** The log2 fold change was inactive: 0.016.

**Q.** How did the log2 fold change turn out when C5orf34 (UniProt Q96MH7) was run?
**A.** The log2 fold change was inactive: 0.166.

**Q.** For CALB1 (UniProt P05937), which log2 fold change is on record?
**A.** The log2 fold change was inactive: 0.011.

**Q.** With CACTIN isoform 2 (UniProt Q8WUQ7) as the target, how does the log2 fold change read?
**A.** Its log2 fold change is inactive: 0.034.

**Q.** Which log2 fold change does the source give for C12orf45 (UniProt Q8N5I9) here?
**A.** The log2 fold change was inactive: 0.063.

**Q.** C17orf75 (UniProt Q9HAS0) was tested. Which log2 fold change did it give?
**A.** The log2 fold change was inactive: -0.014.

**Q.** For C1orf52 (UniProt Q8N6N3), which log2 fold change is on record?
**A.** The log2 fold change was inactive: 0.035.

**Q.** Which log2 fold change does the source give for CALR (UniProt P27797) here?
**A.** Its log2 fold change is inactive: 0.002.

**Q.** With CAD (UniProt H7BZB3) as the target, how does the log2 fold change read?
**A.** Its log2 fold change is inactive: 0.113.

**Q.** How did the log2 fold change turn out when C2orf69 (UniProt Q8N8R5) was run?
**A.** The log2 fold change was inactive: -0.017.

**Q.** CALM2 (UniProt P0DP24) was tested. Which log2 fold change did it give?
**A.** Its log2 fold change is inactive: 0.008.

**Q.** How did the log2 fold change turn out when C2CD2L (UniProt O14523) was run?
**A.** The log2 fold change was inactive: 0.03.

**Q.** With C9orf64 (UniProt Q5T6V5) as the target, how does the log2 fold change read?
**A.** Its log2 fold change is inactive: -0.019.

**Q.** C11orf74 (UniProt Q86VG3) was tested. Which log2 fold change did it give?
**A.** Its log2 fold change is inactive: 0.006.

**Q.** CANX isoform 2 (UniProt P27824) was tested. Which log2 fold change did it give?
**A.** The log2 fold change was inactive: 0.018.

**Q.** For C2orf49 (UniProt Q9BVC5), which log2 fold change is on record?
**A.** Its log2 fold change is inactive: 0.053.

**Q.** How did the log2 fold change turn out when CAPZA2 (UniProt P47755) was run?
**A.** The log2 fold change was inactive: -0.014.

**Q.** For C9orf40 (UniProt Q8IXQ3), which log2 fold change is on record?
**A.** Its log2 fold change is inactive: -0.02.

**Q.** For C15orf40 (UniProt Q8WUR7), which log2 fold change is on record?
**A.** The log2 fold change was inactive: 0.024.

**Q.** How did the log2 fold change turn out when CALU isoform 4 (UniProt O43852) was run?
**A.** Its log2 fold change is inactive: 0.008.

**Q.** How did the log2 fold change turn out when C7orf25 isoform 2 (UniProt Q9BPX7) was run?
**A.** The log2 fold change was inactive: -0.004.

**Q.** CAPG (UniProt P40121) was tested. Which log2 fold change did it give?
**A.** Its log2 fold change is inactive: 0.021.

**Q.** How did the log2 fold change turn out when CAPZA1 (UniProt P52907) was run?
**A.** Its log2 fold change is inactive: 0.03.

**Q.** For CAPN1 (UniProt P07384), which log2 fold change is on record?
**A.** Its log2 fold change is inactive: -0.006.

**Q.** For C8orf76 (UniProt Q96K31), which log2 fold change is on record?
**A.** The log2 fold change was inactive: 0.026.

**Q.** With C1QBP (UniProt Q07021) as the target, how does the log2 fold change read?
**A.** Its log2 fold change is inactive: 0.014.

**Q.** With CA1 (UniProt P00915) as the target, how does the log2 fold change read?
**A.** The log2 fold change was inactive: 0.006.

**Q.** C8orf82 (UniProt Q6P1X6) was tested. Which log2 fold change did it give?
**A.** The log2 fold change was inactive: 0.008.

**Q.** BUB1B isoform 3 (UniProt O60566) was tested. Which log2 fold change did it give?
**A.** Its log2 fold change is inactive: 0.004.

**Q.** How did the log2 fold change turn out when C20orf27 isoform 2 (UniProt Q9GZN8) was run?
**A.** Its log2 fold change is inactive: -0.009.

**Q.** With C7orf26 (UniProt Q96N11) as the target, how does the log2 fold change read?
**A.** Its log2 fold change is inactive: 0.139.

What follows are targets tested with O=C(CCCCCCC(=O)Nc1ccccc1)NO [vorinostat] in the same assay as above.
Summary of the method: as §1

**Q.** Which log2 fold change does the source give for CAND1 (UniProt Q86VP6) here?
**A.** The log2 fold change was inactive: 0.105.

**Q.** For CAMKK2 (UniProt Q96RR4), which log2 fold change is on record?
**A.** The log2 fold change was active: -0.325.

**Q.** With C16orf70 (UniProt Q9BSU1) as the target, how does the log2 fold change read?
**A.** Its log2 fold change is active: -0.382.

**Q.** C8orf37 (UniProt Q96NL8) was tested. Which log2 fold change did it give?
**A.** Its log2 fold change is inactive: 0.084.

**Q.** How did the log2 fold change turn out when C9orf78 (UniProt Q9NZ63) was run?
**A.** The log2 fold change was inactive: 0.109.

**Q.** With C18orf32 (UniProt Q8TCD1) as the target, how does the log2 fold change read?
**A.** The log2 fold change was active: -0.486.

**Q.** For C12orf29 (UniProt Q8N999), which log2 fold change is on record?
**A.** Its log2 fold change is inactive: -0.218.

**Q.** How did the log2 fold change turn out when CA13 (UniProt Q8N1Q1) was run?
**A.** Its log2 fold change is inactive: 0.171.

**Q.** With C5orf30 (UniProt Q96GV9) as the target, how does the log2 fold change read?
**A.** Its log2 fold change is inactive: 0.104.

**Q.** Which log2 fold change does the source give for BUB3 (UniProt O43684) here?
**A.** The log2 fold change was inactive: -0.09.

**Q.** C5orf34 (UniProt Q96MH7) was tested. Which log2 fold change did it give?
**A.** Its log2 fold change is inactive: -0.045.

**Q.** Which log2 fold change does the source give for CALB1 (UniProt P05937) here?
**A.** The log2 fold change was inactive: 0.072.

**Q.** With CACTIN isoform 2 (UniProt Q8WUQ7) as the target, how does the log2 fold change read?
**A.** Its log2 fold change is inactive: -0.141.

**Q.** Which log2 fold change does the source give for C12orf45 (UniProt Q8N5I9) here?
**A.** The log2 fold change was inactive: 0.012.

**Q.** With C17orf75 (UniProt Q9HAS0) as the target, how does the log2 fold change read?
**A.** The log2 fold change was inactive: -0.118.

**Q.** C1orf52 (UniProt Q8N6N3) was tested. Which log2 fold change did it give?
**A.** The log2 fold change was inactive: 0.093.

**Q.** With CALR (UniProt P27797) as the target, how does the log2 fold change read?
**A.** Its log2 fold change is inactive: 0.108.

**Q.** Which log2 fold change does the source give for CAD (UniProt H7BZB3) here?
**A.** The log2 fold change was inactive: -0.54.

**Q.** How did the log2 fold change turn out when C2orf69 (UniProt Q8N8R5) was run?
**A.** Its log2 fold change is inactive: 0.032.

**Q.** With CALM2 (UniProt P0DP24) as the target, how does the log2 fold change read?
**A.** Its log2 fold change is inactive: -0.027.

**Q.** With C2CD2L (UniProt O14523) as the target, how does the log2 fold change read?
**A.** Its log2 fold change is inactive: -0.015.

**Q.** Which log2 fold change does the source give for C9orf64 (UniProt Q5T6V5) here?
**A.** The log2 fold change was inactive: -0.088.

**Q.** Which log2 fold change does the source give for C11orf74 (UniProt Q86VG3) here?
**A.** The log2 fold change was inactive: -0.067.

**Q.** With CANX isoform 2 (UniProt P27824) as the target, how does the log2 fold change read?
**A.** Its log2 fold change is inactive: 0.131.

**Q.** With C2orf49 (UniProt Q9BVC5) as the target, how does the log2 fold change read?
**A.** The log2 fold change was inactive: -0.079.

**Q.** For CAPZA2 (UniProt P47755), which log2 fold change is on record?
**A.** The log2 fold change was inactive: 0.063.

**Q.** With C9orf40 (UniProt Q8IXQ3) as the target, how does the log2 fold change read?
**A.** The log2 fold change was inactive: 0.009.

**Q.** Which log2 fold change does the source give for C15orf40 (UniProt Q8WUR7) here?
**A.** The log2 fold change was inactive: 0.101.

**Q.** CALU isoform 4 (UniProt O43852) was tested. Which log2 fold change did it give?
**A.** Its log2 fold change is inactive: 0.12.

**Q.** With C7orf25 isoform 2 (UniProt Q9BPX7) as the target, how does the log2 fold change read?
**A.** Its log2 fold change is inactive: -0.151.

**Q.** With CAPG (UniProt P40121) as the target, how does the log2 fold change read?
**A.** Its log2 fold change is inactive: 0.08.

**Q.** How did the log2 fold change turn out when CAPZA1 (UniProt P52907) was run?
**A.** Its log2 fold change is inactive: 0.113.

**Q.** Which log2 fold change does the source give for CAPN1 (UniProt P07384) here?
**A.** Its log2 fold change is inactive: 0.047.

**Q.** How did the log2 fold change turn out when C8orf76 (UniProt Q96K31) was run?
**A.** Its log2 fold change is inactive: -0.035.

**Q.** C1QBP (UniProt Q07021) was tested. Which log2 fold change did it give?
**A.** The log2 fold change was inactive: 0.087.

**Q.** With CA1 (UniProt P00915) as the target, how does the log2 fold change read?
**A.** Its log2 fold change is inactive: 0.192.

**Q.** How did the log2 fold change turn out when C8orf82 (UniProt Q6P1X6) was run?
**A.** Its log2 fold change is inactive: -0.008.

**Q.** Which log2 fold change does the source give for BUB1B isoform 3 (UniProt O60566) here?
**A.** Its log2 fold change is active: -0.376.

**Q.** For C20orf27 isoform 2 (UniProt Q9GZN8), which log2 fold change is on record?
**A.** Its log2 fold change is inactive: -0.007.

**Q.** How did the log2 fold change turn out when C7orf26 (UniProt Q96N11) was run?
**A.** The log2 fold change was inactive: -0.191.
